# Test results from PubChem BioAssay AID1347075 (National Center for Advancing Translational Sciences (NCATS), 2019).
# The campaign covered roughly 400,000 compounds. About 5,500 (1.4%) were called active. The shares of active, inactive and inconclusive entries below differ from those in the screen. Calls follow the shape of the dose curve; as a rule, active = well fitted cell-killing curve with a large enough effect; inconclusive = small, poorly fitted or top-dose-only effect, or effect the other way; inactive = flat fitted curve, though single readings scatter. Potencies beside an inconclusive call are fits to weak or partial responses and may not hold up.
# Experiment: qHTS assay for MDR1-selective chemotherapeutics: Primary screen using the parental adenocarcinoma cell KB-3-1; also: nearly all actives have a fitted effect of over 60% in size
# Settings: KB-3-1 viability, CellTiter-Glo ATP luminescence, 72 h; activity change, negative = cytotoxic: at 46.1 µM (top of the series)
# How it was run: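 KB-3-1 cells, DMEM (no phenol red) + 10% FBS; compound by pin transfer, 72 h, 37 °C. Readout: CellTiter-Glo luminescence after 10 min. Data normalized, curve-fitted.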
# % is scaled to controls: 0 for no effect and ±100 for the full control effect; potency is read from the fitted curve at half-maximal effect.
SMILES,Potency,"activity change, negative = cytotoxic"
CC(C)(C)CC(C)(C)N=C1Nc2ccc(Cl)cc2N[C@]12C[C@H]1CCCC(=O)N3CC[C@@H](C2)[C@@H]13,"inconclusive: 29.1 µM [cytotoxic, single point]",
CC(C)C(NS(=O)(=O)c1cccc(C(F)(F)F)c1)C(=O)NCc1cccs1 (configuration not stated),,inactive: 0.577%
CCn1c(C)[n+](CC(O)COCC2CC=CCC2)c2ccccc21 (configuration not stated),,inactive: 2.19%
O=C(C[n+]1ccc(Cl)c2ccc(Cl)cc21)c1ccc(F)cc1,"inconclusive: 29.1 µM [rising, single point]",
COc1ccc(S(=O)(=O)N2CCCc3ccccc32)cc1[N+](=O)[O-],active: 4.11 µM,
O=C(COc1ccc(F)cc1)Nc1c(C(=O)N2CCC(N3CCCCC3)CC2)oc2ccccc12,"inconclusive: 0.517 µM [rising, full curve]",
Cc1cc2cc3c(C)cc(=O)oc3c(C)c2o1,,inactive: 0.954%
CCN1C(=O)/C(=C2\C=Cc3cc(C)ccc3N2CC)OC1=S,,inactive: -2.02%
CN(c1ccccc1)S(=O)(=O)c1ccc(C(=O)Nc2nnc(-c3ccco3)o2)cc1,"inconclusive: 14.6 µM [cytotoxic, partial curve, poor fit]",
COc1ccc2[nH]c(=O)c(CN(Cc3ccco3)C(c3nnnn3Cc3ccccc3)C(C)C)cc2c1 (configuration not stated),"inconclusive: 29.1 µM [cytotoxic, single point]",
N#C/C(=N\Nc1ccc([N+](=O)[O-])cc1)C(N)=S,"inconclusive: 25.9 µM [cytotoxic, single point]",
CC(C)(C)c1csc(Sc2ccc([N+](=O)[O-])cn2)n1,"inconclusive: 29.1 µM [cytotoxic, single point]",
O=c1ccn([C@@H]2O[C@H](CNS(=O)(=O)c3csc(-c4ccno4)c3)[C@@H](O)[C@H]2O)c(=O)[nH]1,"inconclusive: 18.4 µM [rising, single point]",
COc1ccc(Oc2ncnc3c2ncn3Cc2ccccc2)cc1,"inconclusive: 14.6 µM [cytotoxic, partial curve, poor fit]",
COc1cc(C(=O)NN=Cc2ccc(N(C)C)cc2)cc(OC)c1OC,active: 1.46 µM,
Cc1nc(C)c2c(=O)cc(-c3ccccc3)[nH]c2n1,active: 7.08 µM,
O=C(Oc1ccc(Br)cc1C(=S)N1CCOCC1)c1cccc([N+](=O)[O-])c1,,inconclusive: -25.2%
CNCCOc1ccc(Cl)c(Cl)c1,,inactive: -37.5%
Cc1ccc(OCC(=O)c2c[nH]c3ccccc23)c([N+](=O)[O-])n1,,inactive: -8.9%
Cc1sc2ncnc(N3CCN(S(=O)(=O)c4ccccc4)CC3)c2c1C,,inactive: 0%
COc1ccc(C(=O)Cn2ccsc2=NC(C)=O)cc1,,inactive: -1.53%
Clc1ccc(C[n+]2cc(-c3ccccc3)n3c2CCC3)cc1,active: 7.31 µM,
O=C(C(=O)N1CCN(C(=O)c2ccco2)CC1)c1ccccc1,,inactive: 3.05%

# 14 structures already listed, arranged by count of non-hydrogen atoms, largest number first:
SMILES,Potency,"activity change, negative = cytotoxic"
COc1ccc2[nH]c(=O)c(CN(Cc3ccco3)C(c3nnnn3Cc3ccccc3)C(C)C)cc2c1 (configuration not stated),"inconclusive: 29.1 µM [cytotoxic, single point]",
O=C(COc1ccc(F)cc1)Nc1c(C(=O)N2CCC(N3CCCCC3)CC2)oc2ccccc12,"inconclusive: 0.517 µM [rising, full curve]",
CC(C)(C)CC(C)(C)N=C1Nc2ccc(Cl)cc2N[C@]12C[C@H]1CCCC(=O)N3CC[C@@H](C2)[C@@H]13,"inconclusive: 29.1 µM [cytotoxic, single point]",
CN(c1ccccc1)S(=O)(=O)c1ccc(C(=O)Nc2nnc(-c3ccco3)o2)cc1,"inconclusive: 14.6 µM [cytotoxic, partial curve, poor fit]",
O=C(Oc1ccc(Br)cc1C(=S)N1CCOCC1)c1cccc([N+](=O)[O-])c1,,inconclusive: -25.2%
Cc1sc2ncnc(N3CCN(S(=O)(=O)c4ccccc4)CC3)c2c1C,,inactive: 0%
COc1ccc(Oc2ncnc3c2ncn3Cc2ccccc2)cc1,"inconclusive: 14.6 µM [cytotoxic, partial curve, poor fit]",
COc1ccc(S(=O)(=O)N2CCCc3ccccc32)cc1[N+](=O)[O-],active: 4.11 µM,
Cc1ccc(OCC(=O)c2c[nH]c3ccccc23)c([N+](=O)[O-])n1,,inactive: -8.9%
O=C(C[n+]1ccc(Cl)c2ccc(Cl)cc21)c1ccc(F)cc1,"inconclusive: 29.1 µM [rising, single point]",
COc1ccc(C(=O)Cn2ccsc2=NC(C)=O)cc1,,inactive: -1.53%
Cc1nc(C)c2c(=O)cc(-c3ccccc3)[nH]c2n1,active: 7.08 µM,
N#C/C(=N\Nc1ccc([N+](=O)[O-])cc1)C(N)=S,"inconclusive: 25.9 µM [cytotoxic, single point]",
CNCCOc1ccc(Cl)c(Cl)c1,,inactive: -37.5%

# Complete entries as entered above:
# COc1ccc(Oc2ncnc3c2ncn3Cc2ccccc2)cc1 reads Potency: inconclusive: 14.6 µM [cytotoxic, partial curve, poor fit]
# CC(C)C(NS(=O)(=O)c1cccc(C(F)(F)F)c1)C(=O)NCc1cccs1 (configuration not stated) reads activity change, negative = cytotoxic: inactive: 0.577%

# Going on with the list:

SMILES,Potency,"activity change, negative = cytotoxic"
Cc1ccc(C(=O)Nc2ccccc2C(=O)O)cc1S(=O)(=O)N1CCCCCC1,,inactive: -9.14%
COc1ccc(NS(=O)(=O)c2ccc3nc(COc4ccc(C#N)cc4)[nH]c3c2)cc1,"inconclusive: 29.1 µM [cytotoxic, single point]",
O=C(COc1cccc(NC(=O)c2cccc([N+](=O)[O-])c2)c1)c1ccc(F)cc1,"inconclusive: 29.1 µM [cytotoxic, single point]",
Cc1cccc(NC(=O)C2(c3ccccc3)CC2(Cl)Cl)c1 (configuration not stated),,inconclusive: -26%
Cc1c(C(=O)N2CCN(S(=O)(=O)c3ccccc3F)CC2)oc2c(Cl)cccc12,"inconclusive: 18.4 µM [cytotoxic, single point]",
Cc1cc(Nc2cc(N3CCN(C)CC3)nc(Sc3ccc(NC(=O)C4CC4)cc3)n2)n[nH]1,"inconclusive: 0.58 µM [cytotoxic, partial curve, poor fit]",
Cc1ccccc1Nc1cc2ccccc2c(=O)[nH]1,"inconclusive: 29.1 µM [cytotoxic, single point]",
O=S(=O)(c1ccc(N2CCN(S(=O)(=O)c3ccc4c(c3)OCCO4)CC2)nc1)N1CCCC1,"inconclusive: 20.6 µM [cytotoxic, single point]",
Cc1cccn2c(=O)c(C=O)c(N3CCC4(CC3)OCCO4)nc12,"inconclusive: 20.6 µM [rising, single point]",
CN(C)Cc1c(O)c(Cl)cc2c3c(c(=O)oc12)CCCC3,,inactive: 0%
COc1cc(/C=N/Nc2ncnc3sc4c(c23)CCC4)ccc1O,"inconclusive: 32.6 µM [cytotoxic, partial curve, poor fit]",
Cc1ccc2nc(NC(=O)CN(C)S(=O)(=O)c3ccc(Br)s3)sc2c1,"inconclusive: 23.1 µM [cytotoxic, single point]",
Cc1ccc(-c2[nH]c(-c3ccc(Cl)cc3)nc2SCC(=O)NCC2CCCO2)cc1 (configuration not stated),"inconclusive: 20.6 µM [cytotoxic, single point]",
CSc1ncccc1C(=O)NC1CC(C)(C)Cc2c1cnn2-c1ccccc1C (configuration not stated),"inconclusive: 23.1 µM [cytotoxic, single point]",
O=C(/C=C/c1cccnc1)c1ccc(NC(=O)c2cccc(Br)c2)cc1,"inconclusive: 11.2 µM [cytotoxic, partial curve, poor fit]",
Cc1ccccc1N(C(=O)Cn1nnc(-c2ccc(F)cc2)n1)C(C(=O)NC(C)(C)C)c1ccncc1 (configuration not stated),"inconclusive: 29.1 µM [cytotoxic, single point]",
O=C(N/N=C/c1ccc(O)cc1O)c1ccncc1,"inconclusive: 13 µM [cytotoxic, single point]",
FC(F)(F)c1ccc(Oc2ccc3c(C(F)(F)F)cc(C(F)(F)F)nc3n2)cc1,,inactive: 5.48%
Oc1ccc(C[C@H]2CNC(=S)N2C[C@H]2CCCN2C[C@H](Cc2ccccc2)N2C[C@H](Cc3ccc(O)cc3)N(CCc3ccccc3)C2=S)cc1,"inconclusive: 29.1 µM [cytotoxic, single point]",
CC(CN1CCOCC1)OC(=O)c1ccc(Br)cc1 (configuration not stated),"inconclusive: 18.4 µM [cytotoxic, single point]",
Cc1ccc2[nH]c(C(=O)Nc3ccccc3)cc2c1,,inactive: -1.83%
COc1ccc(-c2cn[nH]c2-c2ccc(OCc3ccc([N+](=O)[O-])cc3)cc2O)cc1OC,"inconclusive: 11.6 µM [cytotoxic, partial curve]",
CCn1c2ccc(C)cc2c2nc3cc(C(=O)O)ccc3nc21,"inconclusive: 14.6 µM [cytotoxic, partial curve, poor fit]",

SMILES,Potency,"activity change, negative = cytotoxic"
O=C(c1ccc(-c2nnc(Nc3cccc(Cl)c3)c3ccccc23)cc1)N1C[C@H]2C[C@H](C1)c1cccc(=O)n1C2,"inconclusive: 23.1 µM [cytotoxic, single point]",
COc1cc2cc(C(c3nnnn3C(C)(C)C)N3CCc4ccccc4C3)c(=O)[nH]c2cc1OC (configuration not stated),,inactive: -2.72%
O=C1/C(=C/c2cccc3ccccc23)CCCc2ccccc21,"inconclusive: 10.3 µM [cytotoxic, partial curve, poor fit]",
CCCCc1nc2sc3c(=O)n(N)cnc3c2c2c1CCC2,"inconclusive: 20.6 µM [rising, single point]",
CCn1c(N2CCN(S(=O)(=O)c3ccc(Cl)cc3)CC2)nc2ccccc21,"inconclusive: 20.6 µM [cytotoxic, single point]",
NC(=O)CCCn1c(C(=O)c2cc(Cl)c(N)c(Cl)c2)c2ccc([N+](=O)[O-])cc2[n+]1[O-],"inconclusive: 29.1 µM [cytotoxic, single point]",
Cc1cc(C)cc(-n2c(C)nc3cc(C(=O)NCc4ccccc4Cl)ccc32)c1,"inconclusive: 20.6 µM [cytotoxic, single point]",
CSc1ccc(NC(=O)N2CCC(C(=O)c3ccc(F)cc3)CC2)cc1,,inactive: -20%
CCCCC[C@@H]1C=C(C(=O)O)[C@H](c2ccc(Cl)c(Cl)c2)N1S(=O)(=O)c1ccc(C)cc1,,inactive: 0%
COc1ccc(NC(=O)CCCC(=O)NCCc2ccc(OC)c(OC)c2)cc1,,inactive: 8.4%
CCOC(=O)[C@H]1[C@H]2COc3ccc(Br)cc3[C@@H]2N2C(=O)c3cc(F)c(F)cc3NC(=O)[C@@]12C,"inconclusive: 25.9 µM [cytotoxic, partial curve, poor fit]",
CCOC(=O)c1c(N)sc2c(OC)c(Br)ccc12,"inconclusive: 29.1 µM [cytotoxic, single point]",
CC1=C(C(=O)OC2CCCCC2)C(c2ccccc2Br)NC(=O)N1 (configuration not stated),"inconclusive: 29.1 µM [cytotoxic, single point]",
Cn1c(=O)oc2cc(S(=O)(=O)NCCC(=O)NCCc3ccc(Cl)cc3)ccc21,active: 16.4 µM,
CCCCC[C@H](C)N1C[C@H](COCc2ccccc2)Oc2cc(N3CC[C@@H](N(C)C)C3)ccc2S1(=O)=O,"inconclusive: 20.6 µM [cytotoxic, single point]",
OC1CN=C2CCCc3c2n(c2ccc(Cl)cc32)C1 (configuration not stated),"inconclusive: 23.1 µM [cytotoxic, single point]",
Cc1ccc(NC(=O)C2CC(=O)N/C(=N/N=C/c3ccco3)S2)cc1C (configuration not stated),"inconclusive: 0.164 µM [rising, full curve, poor fit]",
Cc1cc(NCCCN2CCOCC2)n2ncc(-c3ccc(Cl)cc3)c2n1,"inconclusive: 29.1 µM [cytotoxic, single point]",
CC(C)OC(=O)CSc1nnc(-c2cccnc2)n1Cc1ccccc1,,inactive: 6.7%
O=C(Nc1ccc(Cl)cc1)/C(=C/c1cccc(O)c1)c1nc2ccccc2s1,active: 2.91 µM,
O=C(c1ccncc1)c1ccc(N2CCN(C3CC(=O)N(Cc4cccs4)C3=O)CC2)cc1 (configuration not stated),"inconclusive: 14.6 µM [cytotoxic, partial curve, poor fit]",
